Consider 47 sequences from the supplement of paper PMC7877785.

A short description of this series: self-splicing fitness, log relative to wild type (ln ratio); higher = more splicing; Tetrahymena group I intron in knt gene, E. coli kanamycin selection, DiMSum; sequences stand for … in CUCUCU…GGAGGGAAAAGUUAUCAGGCAUGCACCUGGUAGCUAGUCUUUAAACCAAUAGAUUGCAUCGGUUUAAAAGGCAAGACCGUCAAAUUGCGGGAAAGGGGUCAACAGCCGUUCAGUACCAAGUCUCAGGGGAAACUUUGAGAUGGCCUUGCAAAGGGUAUGGUAAUAAGCUGACGGACAUGGUCCUAACCACGCAGCCAAGUCCUAAGUCAACAGAUCUUCUGUUGAUAUGGAUGCAGUUCACAGACUAAAUGUCGGUCGGGGAAGAUGUAUUCUUCUCAUAAGAUAUAGUCGGACCUCUCCUUAAUGGGAGCUAGCGGAUGAAGUGAUGCAACACUGGAGCCGCUGGGAACUAAUUUGUAUGCGAAAGUAUAUUGAUUAGUUUUGGAGUACUCGUGGUCG
In a few lines:
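A randomised library covering all eight P1ex-region intron nucleotides was built with the intron in the knt kanamycin-resistance gene on pET-22b(+) and held in E. coli BL21(DE3). Cells were grown overnight at 37°C or 30°C on LB agar, with or without 25 μg/mL kanamycin, plus 100 μg/mL carbenicillin, 50 μM IPTG and 0.2% rhamnose, and pooled colonies were amplicon-sequenced on an Illumina HiSeq 2500. DiMSum fitness is the error-weighted combination of wild-type-normalised replicate fold changes, kanamycin versus none.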

± gives the uncertainty stated by the source. The uncertainty is large for many entries.

For UCCAAGCAAUAUUACGUACU, the “self-splicing fitness (ln)” value was -3.94 ± 0.39 (30 °C) and -2.54 ± 0.24 (37 °C).

With GUGAAGCAAUAUUACGAACC, the “self-splicing fitness (ln)” value (37 °C) amounted to 1.11 ± 1.1.

Take UAACAGCAAUAUUACGGAGC: the “self-splicing fitness (ln)” value (30 °C) is -4.21 ± 0.59.

With CACGAGCAAUAUUACGCAUC, the “self-splicing fitness (ln)” value (37 °C) was -2.67 ± 1.1.

With CUCUAGCAAUAUUACGAAUC, the “self-splicing fitness (ln)” value (30 °C) is -5.3 ± 1.

Consider UCUAAGCAAUAUUACGUGCU, for which the “self-splicing fitness (ln)” value was -4.04 ± 0.34 (30 °C) and -2.37 ± 0.2 (37 °C).

Consider GCCGAGCAAUAUUACGAACG, for which, for the setting “37 °C”, the “self-splicing fitness (ln)” value is -1.28 ± 0.54.

As for AUGGAGCAAUAUUACGAUCG, the “self-splicing fitness (ln)” value reads like this: (30 °C) -4.05 ± 0.6; (37 °C) -1.1 ± 0.42.

Regarding UUAGAGCAAUAUUACGCAGA, the “self-splicing fitness (ln)” value (37 °C) worked out at 0.205 ± 0.67.

AAGGAGCAAUAUUACGCCAA: the “self-splicing fitness (ln)” value is -4.19 ± 0.46 (30 °C) and -3.11 ± 0.3 (37 °C).

For UCCUAGCAAUAUUACGCGGC, the “self-splicing fitness (ln)” value (37 °C) was -1.69 ± 0.81.

With ACUAAGCAAUAUUACGCCGA, the “self-splicing fitness (ln)” value by setting is: (30 °C) -1.86 ± 0.18; (37 °C) -0.197 ± 0.16.

Turning to CGCGAGCAAUAUUACGGACC, the “self-splicing fitness (ln)” value (30 °C) was -4.82 ± 1.

With CUAUAGCAAUAUUACGAGCU, the “self-splicing fitness (ln)” value (37 °C) was -1.79 ± 1.2.

For ACGGAGCAAUAUUACGAUGA, the “self-splicing fitness (ln)” value reads like this: (30 °C) -2.56 ± 0.12; (37 °C) -2.57 ± 0.19.

Take CAUGAGCAAUAUUACGGUAA: for the setting “30 °C”, the “self-splicing fitness (ln)” value is -3.59 ± 0.6.

In the case of UUAUAGCAAUAUUACGACAC, the “self-splicing fitness (ln)” value is -1.83 ± 0.57 (30 °C) and -0.3 ± 0.6 (37 °C).

For CAUAAGCAAUAUUACGUCAC, the “self-splicing fitness (ln)” value (37 °C) was -3.16 ± 0.61.

With GCCGAGCAAUAUUACGUCGG, for the setting “37 °C”, the “self-splicing fitness (ln)” value is -4.04 ± 0.51.

Regarding UGAGAGCAAUAUUACGGCAG, the “self-splicing fitness (ln)” value (30 °C) is -3.39 ± 0.61.

In the case of UUGGAGCAAUAUUACGGUAC, the “self-splicing fitness (ln)” value is, setting by setting: (30 °C) -3.08 ± 0.53; (37 °C) -3.25 ± 0.6.

For the sequence GUGGAGCAAUAUUACGAUAA, the “self-splicing fitness (ln)” value (37 °C) is 0.459 ± 1.2.

Consider UGGCAGCAAUAUUACGACAC, for which, under “30 °C”, the “self-splicing fitness (ln)” value is -2.84 ± 0.67.

In the case of CAUAAGCAAUAUUACGCAAC, the “self-splicing fitness (ln)” value by setting is: (30 °C) -4.16 ± 0.59; (37 °C) -3.24 ± 0.52.

For the sequence UCGGAGCAAUAUUACGAUUG, the “self-splicing fitness (ln)” value is -3.84 ± 0.59 (30 °C) and -2.55 ± 0.54 (37 °C).

For the sequence CGGAAGCAAUAUUACGCUGA, the “self-splicing fitness (ln)” value (30 °C) was -3.47 ± 0.61.

With GUGAAGCAAUAUUACGAGGU, the “self-splicing fitness (ln)” value by setting is: (30 °C) -1.83 ± 0.29; (37 °C) -1.36 ± 0.26.

For the sequence CACGAGCAAUAUUACGUAAC, the “self-splicing fitness (ln)” value (37 °C) was -2.61 ± 0.55.

ACUGAGCAAUAUUACGGGAG: the “self-splicing fitness (ln)” value by setting is: (30 °C) -3.29 ± 0.2; (37 °C) -2.74 ± 0.2.

As to CUUAAGCAAUAUUACGCCCC, for the setting “37 °C”, the “self-splicing fitness (ln)” value was -1.26 ± 0.87.

On to CAGAAGCAAUAUUACGAGAA, for which the “self-splicing fitness (ln)” value (30 °C) is -4.04 ± 0.53.

For the sequence CAUAAGCAAUAUUACGAGAC, the “self-splicing fitness (ln)” value (37 °C) is -2.82 ± 0.53.

With AACAAGCAAUAUUACGGGAA, the “self-splicing fitness (ln)” value is, setting by setting: (30 °C) -1.57 ± 0.097; (37 °C) -1.86 ± 0.13.

With GGGUAGCAAUAUUACGACGG, for the setting “30 °C”, the “self-splicing fitness (ln)” value was -3.76 ± 0.54.

For the sequence UUUCAGCAAUAUUACGAAAC, the “self-splicing fitness (ln)” value (30 °C) is -4.41 ± 0.59.

Consider UUCGAGCAAUAUUACGGGGU, for which the “self-splicing fitness (ln)” value (37 °C) was -3.34 ± 0.61.

AACGAGCAAUAUUACGUUCC: the “self-splicing fitness (ln)” value is, setting by setting: (30 °C) -3.09 ± 0.36; (37 °C) -2.41 ± 0.3.

With UAGCAGCAAUAUUACGAUAU, the “self-splicing fitness (ln)” value reads like this: (30 °C) -2.42 ± 0.15; (37 °C) -2.98 ± 0.19.

For the sequence CAGUAGCAAUAUUACGGACC, the “self-splicing fitness (ln)” value (37 °C) was -2.37 ± 0.63.

Consider CACUAGCAAUAUUACGCUAA, for which the “self-splicing fitness (ln)” value was -3.33 ± 0.3 (30 °C) and -1.75 ± 0.19 (37 °C).

As for CACAAGCAAUAUUACGAUCA, the “self-splicing fitness (ln)” value (30 °C) was -2.43 ± 0.11 and the “self-splicing fitness (ln)” value (37 °C) is -1.55 ± 0.12.

Consider UGAGAGCAAUAUUACGUAGC, for which the “self-splicing fitness (ln)” value (30 °C) was -3.46 ± 1.1.

Regarding GAUGAGCAAUAUUACGGGCC, the “self-splicing fitness (ln)” value reads like this: (30 °C) -3.45 ± 0.52; (37 °C) -2.82 ± 0.62.

For GCACAGCAAUAUUACGCAGC, the “self-splicing fitness (ln)” value (30 °C) is -3.8 ± 0.52.

Turning to CCUUAGCAAUAUUACGAUAC, the “self-splicing fitness (ln)” value by setting is: (30 °C) -1.67 ± 0.44; (37 °C) -2.55 ± 0.54.

Regarding UCUCAGCAAUAUUACGCCCC, the “self-splicing fitness (ln)” value (30 °C) is -1.85 ± 0.88 and the “self-splicing fitness (ln)” value (37 °C) was -2.15 ± 0.65.

As to CGAGAGCAAUAUUACGCACU, the “self-splicing fitness (ln)” value (30 °C) is -2.06 ± 0.2 and the “self-splicing fitness (ln)” value (37 °C) is -1.89 ± 0.23.
